Further values from the same series stand in other lists.
Tested on: Escherichia coli
Test: minimum inhibitory concentration (MIC)
Procedure: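 Broth microdilution MIC (Sensititre BOPO7F bovine plate, CLSI methods) of 19 antimicrobials against field isolates of P. multocida, M. haemolytica, H. somni (deep nasopharyngeal swabs) and E. coli, Enterococcus spp. (rectal swabs) from weaned dairy heifers. Incubation 16-24 h at 35 C. MIC is the lowest concentration preventing visible growth. Values with <= or > lie at the tested range limits. Trimethoprim-sulfamethoxazole is given as the trimethoprim component of a 1:19 mixture.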

COc1cc(NS(=O)(=O)c2ccc(N)cc2)nc(OC)n1 [sulfadimethoxine]
Details	minimum inhibitory concentration [µg/mL]
isolate (source animal id): 1	≤ 256
isolate (source animal id): 2	> 256
isolate (source animal id): 3	≤ 256
isolate (source animal id): 4	≤ 256
isolate (source animal id): 5	> 256
isolate (source animal id): 6	> 256
isolate (source animal id): 7	> 256
isolate (source animal id): 17	> 256
isolate (source animal id): 18	> 256
isolate (source animal id): 19	≤ 256
isolate (source animal id): 20	> 256
isolate (source animal id): 21	≤ 256
isolate (source animal id): 22	≤ 256
isolate (source animal id): 23	≤ 256
isolate (source animal id): 24	≤ 256
isolate (source animal id): 25	> 256
isolate (source animal id): 26	≤ 256
isolate (source animal id): 27	> 256
isolate (source animal id): 28	≤ 256
isolate (source animal id): 29	> 256
isolate (source animal id): 30	> 256
isolate (source animal id): 31	> 256
isolate (source animal id): 32	> 256
isolate (source animal id): 33	> 256
isolate (source animal id): 34	> 256
isolate (source animal id): 35	> 256
isolate (source animal id): 36	> 256
isolate (source animal id): 37	> 256
isolate (source animal id): 38	> 256
isolate (source animal id): 39	> 256
isolate (source animal id): 40	> 256
isolate (source animal id): 41	> 256
isolate (source animal id): 42	> 256
isolate (source animal id): 43	> 256
isolate (source animal id): 44	≤ 256
isolate (source animal id): 45	> 256
isolate (source animal id): 46	> 256
isolate (source animal id): 47	> 256
isolate (source animal id): 48	> 256
isolate (source animal id): 49	> 256
isolate (source animal id): 50	> 256
isolate (source animal id): 51	> 256
isolate (source animal id): 52	≤ 256
isolate (source animal id): 53	> 256
isolate (source animal id): 54	≤ 256
isolate (source animal id): 55	> 256
isolate (source animal id): 56	≤ 256
isolate (source animal id): 57	> 256
isolate (source animal id): 58	> 256
isolate (source animal id): 59	> 256
isolate (source animal id): 60	> 256
isolate (source animal id): 61	> 256
isolate (source animal id): 62	> 256
isolate (source animal id): 63	> 256
isolate (source animal id): 64	> 256
isolate (source animal id): 65	> 256
isolate (source animal id): 66	> 256
isolate (source animal id): 67	> 256
isolate (source animal id): 68	> 256
isolate (source animal id): 69	> 256
isolate (source animal id): 70	> 256
isolate (source animal id): 71	> 256
isolate (source animal id): 72	> 256
isolate (source animal id): 73	≤ 256
isolate (source animal id): 74	> 256
isolate (source animal id): 75	> 256
isolate (source animal id): 76	> 256
isolate (source animal id): 77	> 256
isolate (source animal id): 78	> 256
isolate (source animal id): 79	> 256
isolate (source animal id): 80	≤ 256
isolate (source animal id): 81	> 256
isolate (source animal id): 82	> 256
isolate (source animal id): 83	> 256
isolate (source animal id): 84	> 256
isolate (source animal id): 85	≤ 256
isolate (source animal id): 86	> 256
isolate (source animal id): 87	> 256
isolate (source animal id): 88	> 256
isolate (source animal id): 89	≤ 256
isolate (source animal id): 90	> 256
isolate (source animal id): 91	> 256
isolate (source animal id): 92	> 256
isolate (source animal id): 93	> 256
isolate (source animal id): 94	> 256
isolate (source animal id): 95	> 256
isolate (source animal id): 96	> 256
isolate (source animal id): 97	> 256
isolate (source animal id): 189	> 256
isolate (source animal id): 190	> 256
isolate (source animal id): 191	≤ 256
isolate (source animal id): 192	> 256
isolate (source animal id): 193	> 256
isolate (source animal id): 194	≤ 256
isolate (source animal id): 195	≤ 256
isolate (source animal id): 196	> 256
isolate (source animal id): 197	> 256
isolate (source animal id): 198	> 256
isolate (source animal id): 199	> 256
isolate (source animal id): 200	≤ 256
isolate (source animal id): 201	> 256
isolate (source animal id): 202	≤ 256
isolate (source animal id): 203	> 256
isolate (source animal id): 204	≤ 256
isolate (source animal id): 205	> 256
isolate (source animal id): 206	≤ 256
isolate (source animal id): 207	> 256
isolate (source animal id): 208	> 256
isolate (source animal id): 209	≤ 256
isolate (source animal id): 210	> 256
isolate (source animal id): 211	> 256
isolate (source animal id): 212	> 256
isolate (source animal id): 213	> 256
isolate (source animal id): 214	> 256
isolate (source animal id): 215	≤ 256
isolate (source animal id): 216	> 256
isolate (source animal id): 217	≤ 256
isolate (source animal id): 218	≤ 256
isolate (source animal id): 219	≤ 256
isolate (source animal id): 220	> 256
isolate (source animal id): 221	≤ 256
isolate (source animal id): 222	≤ 256
isolate (source animal id): 223	> 256
isolate (source animal id): 224	> 256
isolate (source animal id): 225	> 256
isolate (source animal id): 226	> 256
isolate (source animal id): 227	> 256
isolate (source animal id): 228	> 256
isolate (source animal id): 229	> 256
isolate (source animal id): 230	> 256
isolate (source animal id): 231	≤ 256
isolate (source animal id): 232	> 256
isolate (source animal id): 233	> 256
isolate (source animal id): 234	> 256
isolate (source animal id): 235	> 256
isolate (source animal id): 236	> 256
isolate (source animal id): 237	> 256
isolate (source animal id): 238	> 256
isolate (source animal id): 239	≤ 256
isolate (source animal id): 240	> 256
isolate (source animal id): 241	> 256
isolate (source animal id): 242	≤ 256
isolate (source animal id): 243	> 256
isolate (source animal id): 244	≤ 256
isolate (source animal id): 245	> 256
isolate (source animal id): 246	> 256
isolate (source animal id): 247	> 256
isolate (source animal id): 248	> 256
isolate (source animal id): 249	≤ 256
isolate (source animal id): 250	> 256
isolate (source animal id): 251	> 256
isolate (source animal id): 252	> 256
isolate (source animal id): 253	> 256
isolate (source animal id): 254	> 256
isolate (source animal id): 255	> 256
isolate (source animal id): 256	> 256
isolate (source animal id): 257	> 256
isolate (source animal id): 258	≤ 256
isolate (source animal id): 259	> 256
isolate (source animal id): 260	> 256
isolate (source animal id): 261	> 256
isolate (source animal id): 262	> 256
isolate (source animal id): 263	> 256
isolate (source animal id): 264	≤ 256
isolate (source animal id): 265	> 256
isolate (source animal id): 266	≤ 256
isolate (source animal id): 267	> 256
isolate (source animal id): 268	≤ 256
isolate (source animal id): 269	> 256
isolate (source animal id): 270	> 256
isolate (source animal id): 271	> 256
isolate (source animal id): 272	≤ 256
isolate (source animal id): 273	> 256
isolate (source animal id): 274	> 256
isolate (source animal id): 275	> 256
isolate (source animal id): 276	> 256
isolate (source animal id): 277	> 256
isolate (source animal id): 278	≤ 256
isolate (source animal id): 279	> 256
isolate (source animal id): 280	> 256
isolate (source animal id): 281	> 256
isolate (source animal id): 282	≤ 256
isolate (source animal id): 283	≤ 256
isolate (source animal id): 284	> 256
isolate (source animal id): 285	≤ 256
isolate (source animal id): 286	> 256
isolate (source animal id): 287	> 256
isolate (source animal id): 288	≤ 256
isolate (source animal id): 289	≤ 256
isolate (source animal id): 290	> 256
isolate (source animal id): 291	> 256
isolate (source animal id): 292	> 256
isolate (source animal id): 293	> 256
isolate (source animal id): 294	> 256
isolate (source animal id): 295	> 256
isolate (source animal id): 296	> 256
isolate (source animal id): 297	≤ 256
isolate (source animal id): 298	> 256
isolate (source animal id): 299	> 256
isolate (source animal id): 300	> 256
isolate (source animal id): 301	> 256
isolate (source animal id): 302	> 256
isolate (source animal id): 303	≤ 256
isolate (source animal id): 304	> 256
isolate (source animal id): 305	≤ 256
isolate (source animal id): 306	≤ 256
isolate (source animal id): 307	≤ 256
isolate (source animal id): 308	> 256
isolate (source animal id): 309	> 256
isolate (source animal id): 310	≤ 256
isolate (source animal id): 311	> 256
isolate (source animal id): 312	> 256
isolate (source animal id): 313	> 256
isolate (source animal id): 314	> 256
isolate (source animal id): 315	≤ 256
isolate (source animal id): 316	> 256
isolate (source animal id): 317	> 256
isolate (source animal id): 318	> 256
isolate (source animal id): 319	> 256
isolate (source animal id): 320	> 256
isolate (source animal id): 321	> 256
isolate (source animal id): 322	> 256
isolate (source animal id): 323	> 256
isolate (source animal id): 324	> 256
isolate (source animal id): 325	> 256
isolate (source animal id): 326	> 256
isolate (source animal id): 327	> 256
isolate (source animal id): 328	≤ 256
isolate (source animal id): 329	≤ 256
isolate (source animal id): 330	> 256
isolate (source animal id): 331	> 256
isolate (source animal id): 332	> 256
isolate (source animal id): 333	> 256
isolate (source animal id): 334	> 256
isolate (source animal id): 335	> 256
isolate (source animal id): 336	> 256
isolate (source animal id): 337	> 256
isolate (source animal id): 338	> 256
isolate (source animal id): 339	> 256
isolate (source animal id): 340	> 256
isolate (source animal id): 341	≤ 256

From the supplement of paper PMC8612539
